Source: paper PMC4691038
These are yes or no findings as the source states them, for the method shown. For some of these results: Binding seen in cells or lysates may run through a third protein. Some binding calls cover weakened binding; strength is not graded here. For some of these results: Sequences can lack the tags named with a protein.

Protein sequences, listed by entry. Tags and fused reporters are not part of them. Lines headed by an entry give the natural chain unless they say otherwise; changes in a name come on top.
UniProt Q9NZM3: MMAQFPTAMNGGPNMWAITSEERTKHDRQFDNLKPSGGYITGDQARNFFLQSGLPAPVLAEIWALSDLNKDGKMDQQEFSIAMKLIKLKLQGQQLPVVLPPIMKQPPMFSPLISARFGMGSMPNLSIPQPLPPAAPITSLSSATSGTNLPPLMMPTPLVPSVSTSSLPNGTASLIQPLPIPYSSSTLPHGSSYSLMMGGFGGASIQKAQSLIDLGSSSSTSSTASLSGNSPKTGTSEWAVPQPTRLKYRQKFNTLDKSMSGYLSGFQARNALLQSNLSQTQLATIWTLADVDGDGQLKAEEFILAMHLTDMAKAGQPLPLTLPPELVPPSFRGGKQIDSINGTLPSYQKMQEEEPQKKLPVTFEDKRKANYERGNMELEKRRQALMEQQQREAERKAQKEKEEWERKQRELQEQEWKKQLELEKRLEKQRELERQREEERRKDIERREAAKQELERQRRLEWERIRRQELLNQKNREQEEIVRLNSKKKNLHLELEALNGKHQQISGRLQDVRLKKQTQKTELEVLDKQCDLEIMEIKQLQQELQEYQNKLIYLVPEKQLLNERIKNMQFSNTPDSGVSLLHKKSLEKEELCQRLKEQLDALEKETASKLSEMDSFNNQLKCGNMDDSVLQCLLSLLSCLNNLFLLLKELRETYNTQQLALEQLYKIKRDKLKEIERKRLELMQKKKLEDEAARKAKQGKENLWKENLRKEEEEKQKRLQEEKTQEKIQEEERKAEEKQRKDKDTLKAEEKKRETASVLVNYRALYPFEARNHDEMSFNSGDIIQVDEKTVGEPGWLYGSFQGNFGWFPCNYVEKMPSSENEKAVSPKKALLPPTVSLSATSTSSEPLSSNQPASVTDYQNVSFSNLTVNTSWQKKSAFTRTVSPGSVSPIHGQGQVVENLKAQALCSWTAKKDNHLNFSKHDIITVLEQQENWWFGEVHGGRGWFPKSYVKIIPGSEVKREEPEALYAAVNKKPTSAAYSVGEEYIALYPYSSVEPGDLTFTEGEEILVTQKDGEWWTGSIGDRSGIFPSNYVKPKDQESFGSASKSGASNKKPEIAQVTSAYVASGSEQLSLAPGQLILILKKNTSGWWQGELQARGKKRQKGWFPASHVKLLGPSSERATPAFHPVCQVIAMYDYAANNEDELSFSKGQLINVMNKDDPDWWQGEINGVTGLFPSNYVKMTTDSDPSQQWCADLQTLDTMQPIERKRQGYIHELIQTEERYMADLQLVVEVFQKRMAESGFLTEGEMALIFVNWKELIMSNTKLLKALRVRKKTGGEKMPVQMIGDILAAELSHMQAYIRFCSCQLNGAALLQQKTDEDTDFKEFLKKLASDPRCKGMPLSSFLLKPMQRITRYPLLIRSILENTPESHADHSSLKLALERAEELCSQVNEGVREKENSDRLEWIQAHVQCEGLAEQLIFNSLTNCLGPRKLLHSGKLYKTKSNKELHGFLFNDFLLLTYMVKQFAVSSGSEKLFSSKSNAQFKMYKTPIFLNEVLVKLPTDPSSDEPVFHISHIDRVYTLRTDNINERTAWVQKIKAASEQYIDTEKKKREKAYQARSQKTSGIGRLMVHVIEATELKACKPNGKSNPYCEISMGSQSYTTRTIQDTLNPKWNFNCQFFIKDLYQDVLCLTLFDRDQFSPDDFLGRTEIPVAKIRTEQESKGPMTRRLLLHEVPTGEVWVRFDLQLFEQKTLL
UniProt Q12929: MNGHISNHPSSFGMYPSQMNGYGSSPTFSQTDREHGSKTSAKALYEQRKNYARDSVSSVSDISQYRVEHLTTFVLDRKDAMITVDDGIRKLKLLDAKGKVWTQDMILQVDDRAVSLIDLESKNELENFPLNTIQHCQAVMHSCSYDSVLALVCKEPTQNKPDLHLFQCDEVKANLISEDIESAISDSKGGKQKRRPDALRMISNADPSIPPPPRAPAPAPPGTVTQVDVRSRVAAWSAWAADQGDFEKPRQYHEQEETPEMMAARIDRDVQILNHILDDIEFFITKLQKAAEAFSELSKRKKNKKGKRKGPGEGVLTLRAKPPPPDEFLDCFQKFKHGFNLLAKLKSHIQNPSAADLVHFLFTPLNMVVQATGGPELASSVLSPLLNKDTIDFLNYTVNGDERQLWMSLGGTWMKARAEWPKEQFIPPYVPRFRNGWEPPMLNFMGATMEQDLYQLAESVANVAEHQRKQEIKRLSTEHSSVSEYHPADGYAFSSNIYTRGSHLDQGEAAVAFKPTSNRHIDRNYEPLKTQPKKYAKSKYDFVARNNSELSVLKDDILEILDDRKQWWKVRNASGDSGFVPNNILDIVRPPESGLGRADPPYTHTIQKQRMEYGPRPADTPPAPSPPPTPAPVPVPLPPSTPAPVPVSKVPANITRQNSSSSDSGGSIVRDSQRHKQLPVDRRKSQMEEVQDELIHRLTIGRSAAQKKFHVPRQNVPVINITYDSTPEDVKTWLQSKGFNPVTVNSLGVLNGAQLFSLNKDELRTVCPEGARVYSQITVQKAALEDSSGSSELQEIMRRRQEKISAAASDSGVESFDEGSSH

What was measured:
[1] = molecular target: T1, endogenous RABEP1 of HeLa cells (human (endogenous in HeLa)) (UniProt Q15276); assay: co-IP; untransfected HeLa lysate, IP with anti-RABEP1 or anti-ITSN2L, blot with the other antibody (endogenous proteins)
T1 sequence: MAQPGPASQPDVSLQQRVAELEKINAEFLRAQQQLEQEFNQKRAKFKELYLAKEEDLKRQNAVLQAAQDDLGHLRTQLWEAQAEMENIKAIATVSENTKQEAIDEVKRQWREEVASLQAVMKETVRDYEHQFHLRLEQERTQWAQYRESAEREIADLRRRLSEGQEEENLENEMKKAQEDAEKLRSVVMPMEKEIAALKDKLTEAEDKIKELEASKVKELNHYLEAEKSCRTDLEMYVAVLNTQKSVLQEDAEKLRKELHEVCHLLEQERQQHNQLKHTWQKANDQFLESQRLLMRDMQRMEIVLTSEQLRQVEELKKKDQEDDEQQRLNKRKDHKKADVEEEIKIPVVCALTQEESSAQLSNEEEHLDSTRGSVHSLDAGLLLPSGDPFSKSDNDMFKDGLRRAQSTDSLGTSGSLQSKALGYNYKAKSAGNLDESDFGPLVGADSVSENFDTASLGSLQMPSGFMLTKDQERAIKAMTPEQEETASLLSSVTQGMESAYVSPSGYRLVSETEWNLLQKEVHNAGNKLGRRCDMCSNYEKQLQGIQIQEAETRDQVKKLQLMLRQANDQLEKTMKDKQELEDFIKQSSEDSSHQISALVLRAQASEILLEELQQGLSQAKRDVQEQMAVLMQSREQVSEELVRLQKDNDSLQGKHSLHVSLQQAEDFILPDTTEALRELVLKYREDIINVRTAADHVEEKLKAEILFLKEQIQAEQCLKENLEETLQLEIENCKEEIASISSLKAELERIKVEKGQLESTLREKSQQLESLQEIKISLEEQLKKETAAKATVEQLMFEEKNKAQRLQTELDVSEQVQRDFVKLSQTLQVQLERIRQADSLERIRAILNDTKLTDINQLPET

Myc-RABEP1 (human) = molecular target: T2, Myc-RABEP1 (human) (UniProt Q15276); assay: co-IP; HeLa cells transfected with Myc-ITSN2L or Myc-RABEP1, RIPA lysate, IP with rabbit polyclonal anti-Myc, blot with anti-RABEP1 or anti-ITSN2L
T2 sequence: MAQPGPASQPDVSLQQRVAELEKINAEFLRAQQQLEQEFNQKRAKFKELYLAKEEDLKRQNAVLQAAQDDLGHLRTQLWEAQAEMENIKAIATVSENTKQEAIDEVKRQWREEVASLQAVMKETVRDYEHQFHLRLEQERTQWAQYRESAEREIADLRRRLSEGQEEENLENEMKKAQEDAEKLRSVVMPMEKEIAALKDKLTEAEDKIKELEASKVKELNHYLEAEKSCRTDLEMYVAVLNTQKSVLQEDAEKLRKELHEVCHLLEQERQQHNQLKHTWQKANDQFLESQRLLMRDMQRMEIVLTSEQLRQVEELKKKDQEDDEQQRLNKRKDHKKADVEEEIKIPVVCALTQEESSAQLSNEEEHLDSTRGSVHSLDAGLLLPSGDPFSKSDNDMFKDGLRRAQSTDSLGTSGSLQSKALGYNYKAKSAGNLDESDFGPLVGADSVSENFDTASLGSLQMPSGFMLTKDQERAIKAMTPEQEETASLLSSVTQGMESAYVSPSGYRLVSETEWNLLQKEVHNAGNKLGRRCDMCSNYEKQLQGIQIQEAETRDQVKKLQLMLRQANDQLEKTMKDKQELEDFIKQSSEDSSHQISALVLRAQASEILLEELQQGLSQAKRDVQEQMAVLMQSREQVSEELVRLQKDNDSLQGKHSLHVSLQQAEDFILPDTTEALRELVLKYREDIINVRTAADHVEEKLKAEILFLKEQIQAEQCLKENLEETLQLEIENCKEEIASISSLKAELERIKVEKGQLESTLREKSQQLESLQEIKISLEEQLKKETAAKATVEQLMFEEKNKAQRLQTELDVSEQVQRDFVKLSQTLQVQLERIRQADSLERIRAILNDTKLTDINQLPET

[2] = molecular target: endogenous ITSN2L of HeLa cells (human (endogenous in HeLa)) (UniProt Q9NZM3); assay: co-IP; HeLa cells overexpressing Myc-tagged EPS8; quantitative immunoprecipitation of ITSN2L, RABEP1 detected
[3] = molecular target: endogenous ITSN2L of HeLa cells (human (endogenous in HeLa)) (UniProt Q9NZM3); assay: co-IP; untransfected HeLa lysate, IP with anti-RABEP1 or anti-ITSN2L, blot with the other antibody (endogenous proteins)
Myc-ITSN2L (human) = Myc-ITSN2L (human) (UniProt Q9NZM3); assay: co-IP; HeLa cells transfected with Myc-ITSN2L or Myc-RABEP1, RIPA lysate, IP with rabbit polyclonal anti-Myc, blot with anti-RABEP1 or anti-ITSN2L
[4] = molecular target: ITSN2L (Intersectin-2Long) expressed from pDBLeu-ITSN2L (human) (UniProt Q9NZM3); assay: two-hybrid; directed test in yeast MaV203: pDBLeu baits with pPC86 preys, Beta-Gal assay (blue colonies)

Q: “endogenous ITSN2L of HeLa cells (from UniProt Q9NZM3-1 1-1697)” was tested. Which binding [1] did it give?
A: binds

Q: What about the binding (Myc-RABEP1 (human)) of the same molecule?
A: binds

Q: With “Myc-tagged EPS8 (from UniProt Q12929 1-822)” as the molecule, how does the binding [2] read?
A: binds

B1: endogenous RABEP1 of HeLa cells (protein, UniProt Q15276 1-862)
chain: MAQPGPASQPDVSLQQRVAELEKINAEFLRAQQQLEQEFNQKRAKFKELYLAKEEDLKRQNAVLQAAQDDLGHLRTQLWEAQAEMENIKAIATVSENTKQEAIDEVKRQWREEVASLQAVMKETVRDYEHQFHLRLEQERTQWAQYRESAEREIADLRRRLSEGQEEENLENEMKKAQEDAEKLRSVVMPMEKEIAALKDKLTEAEDKIKELEASKVKELNHYLEAEKSCRTDLEMYVAVLNTQKSVLQEDAEKLRKELHEVCHLLEQERQQHNQLKHTWQKANDQFLESQRLLMRDMQRMEIVLTSEQLRQVEELKKKDQEDDEQQRLNKRKDHKKADVEEEIKIPVVCALTQEESSAQLSNEEEHLDSTRGSVHSLDAGLLLPSGDPFSKSDNDMFKDGLRRAQSTDSLGTSGSLQSKALGYNYKAKSAGNLDESDFGPLVGADSVSENFDTASLGSLQMPSGFMLTKDQERAIKAMTPEQEETASLLSSVTQGMESAYVSPSGYRLVSETEWNLLQKEVHNAGNKLGRRCDMCSNYEKQLQGIQIQEAETRDQVKKLQLMLRQANDQLEKTMKDKQELEDFIKQSSEDSSHQISALVLRAQASEILLEELQQGLSQAKRDVQEQMAVLMQSREQVSEELVRLQKDNDSLQGKHSLHVSLQQAEDFILPDTTEALRELVLKYREDIINVRTAADHVEEKLKAEILFLKEQIQAEQCLKENLEETLQLEIENCKEEIASISSLKAELERIKVEKGQLESTLREKSQQLESLQEIKISLEEQLKKETAAKATVEQLMFEEKNKAQRLQTELDVSEQVQRDFVKLSQTLQVQLERIRQADSLERIRAILNDTKLTDINQLPET
Q: Which results are given for B1?
A: binding [2]: binds; binding [3]: binds; binding (Myc-ITSN2L (human)): binds

B2: RABEP1 (rabaptin-5) expressed from pPC86-RABEP1 (protein, UniProt Q15276 1-862)
chain: MAQPGPASQPDVSLQQRVAELEKINAEFLRAQQQLEQEFNQKRAKFKELYLAKEEDLKRQNAVLQAAQDDLGHLRTQLWEAQAEMENIKAIATVSENTKQEAIDEVKRQWREEVASLQAVMKETVRDYEHQFHLRLEQERTQWAQYRESAEREIADLRRRLSEGQEEENLENEMKKAQEDAEKLRSVVMPMEKEIAALKDKLTEAEDKIKELEASKVKELNHYLEAEKSCRTDLEMYVAVLNTQKSVLQEDAEKLRKELHEVCHLLEQERQQHNQLKHTWQKANDQFLESQRLLMRDMQRMEIVLTSEQLRQVEELKKKDQEDDEQQRLNKRKDHKKADVEEEIKIPVVCALTQEESSAQLSNEEEHLDSTRGSVHSLDAGLLLPSGDPFSKSDNDMFKDGLRRAQSTDSLGTSGSLQSKALGYNYKAKSAGNLDESDFGPLVGADSVSENFDTASLGSLQMPSGFMLTKDQERAIKAMTPEQEETASLLSSVTQGMESAYVSPSGYRLVSETEWNLLQKEVHNAGNKLGRRCDMCSNYEKQLQGIQIQEAETRDQVKKLQLMLRQANDQLEKTMKDKQELEDFIKQSSEDSSHQISALVLRAQASEILLEELQQGLSQAKRDVQEQMAVLMQSREQVSEELVRLQKDNDSLQGKHSLHVSLQQAEDFILPDTTEALRELVLKYREDIINVRTAADHVEEKLKAEILFLKEQIQAEQCLKENLEETLQLEIENCKEEIASISSLKAELERIKVEKGQLESTLREKSQQLESLQEIKISLEEQLKKETAAKATVEQLMFEEKNKAQRLQTELDVSEQVQRDFVKLSQTLQVQLERIRQADSLERIRAILNDTKLTDINQLPET
Q: Which binding [4] does the source give for B2 here?
A: binds
